The record followed here is US8802634B2, “CD40-L Inhibitory Peptides” (Phylogica Limited, priority 2008, dated 2014).

Protein sequences, listed by entry. Tags and fused reporters are not part of them. Residues count along the entry.
UniProt P29965, 113-261 limits assumed: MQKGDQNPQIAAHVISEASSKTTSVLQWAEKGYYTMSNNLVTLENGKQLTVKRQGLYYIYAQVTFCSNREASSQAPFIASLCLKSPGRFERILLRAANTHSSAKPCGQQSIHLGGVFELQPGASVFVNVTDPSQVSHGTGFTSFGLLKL

Molecules are shown by their SMILES. The match of structure and compound is tentative.

In the assay the target is CD40L/CD40-Fc (Homo sapiens, UniProt P29965). The assay is described as follows: Chemiluminescent proximity assay (Alphascreen) of CD40L-CD40 interaction. To be noted: read-out: EC50(PEGylated) CD40L/CD40-Fc/BAF617; PEGylated chiral (retro-inverted) analog. On the technique in general: Alpha assays give light when donor and acceptor beads are brought close together.

For the compound `CC[C@@H](C)[C@@H](NC(=O)[C@@H](Cc1c[nH]c2ccccc12)NC(=O)[C@@H](CC(N)=O)NC(=O)[C@@H](Cc1ccccc1)NC(=O)[C@@H](Cc1ccccc1)NC(=O)[C@@H](CO)NC(=O)[C@H](NC(=O)[C@H](N)Cc1ccc(O)cc1)C(C)C)C(=O)N[C@H](CO)C(=O)N[C@H](Cc1ccccc1)C(=O)N[C@@H](C(=O)N[C@H](CC(N)=O)C(=O)N[C@H](CCCCN)C(=O)N[C@@H](C(=O)N[C@H](CO)C(=O)N[C@H](Cc1ccccc1)C(=O)N1CCC[C@@H]1C(=O)N[C@H](Cc1cnc[nH]1)C(=O)O)[C@H](C)CC)C(C)C`, the EC50 came out at 20 nM.
